Test: general procedure: solution-phase peptide synthesis; HATU/HOAt/DIPEA

Substance | conjugation yield (conjugation step) [%] | step yield (coupling step) [%]
Boc-Ala-D-Iso-Glu(OBn)-Lys(Rhodamine)-D-Ala-D-Ala-OMe | 64 | 
Boc-Ala-D-iso-Glu(OBn)-Lys(Fmoc)-D-Ala-D-Ala-OMe |  | 77

— patent publication US12378328B2 (Nanyang Technological University, priority 2019, dated 2025)
